Sequences of proteins named here, by UniProt entry; tags and fusion partners are left off. A change or cut given only in a name is not applied to a line headed by its entry.
UniProt Q43870: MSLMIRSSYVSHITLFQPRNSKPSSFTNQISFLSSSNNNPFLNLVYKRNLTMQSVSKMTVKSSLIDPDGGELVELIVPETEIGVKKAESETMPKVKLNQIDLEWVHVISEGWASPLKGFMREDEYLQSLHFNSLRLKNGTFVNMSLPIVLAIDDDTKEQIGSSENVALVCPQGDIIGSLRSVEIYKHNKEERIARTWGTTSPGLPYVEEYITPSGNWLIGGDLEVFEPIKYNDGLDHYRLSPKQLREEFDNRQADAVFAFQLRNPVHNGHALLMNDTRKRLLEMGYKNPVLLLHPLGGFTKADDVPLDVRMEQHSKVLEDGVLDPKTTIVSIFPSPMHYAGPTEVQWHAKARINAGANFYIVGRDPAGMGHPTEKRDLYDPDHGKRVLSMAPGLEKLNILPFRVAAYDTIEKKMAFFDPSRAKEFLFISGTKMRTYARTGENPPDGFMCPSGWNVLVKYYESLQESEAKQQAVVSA
UniProt Q9S7D8: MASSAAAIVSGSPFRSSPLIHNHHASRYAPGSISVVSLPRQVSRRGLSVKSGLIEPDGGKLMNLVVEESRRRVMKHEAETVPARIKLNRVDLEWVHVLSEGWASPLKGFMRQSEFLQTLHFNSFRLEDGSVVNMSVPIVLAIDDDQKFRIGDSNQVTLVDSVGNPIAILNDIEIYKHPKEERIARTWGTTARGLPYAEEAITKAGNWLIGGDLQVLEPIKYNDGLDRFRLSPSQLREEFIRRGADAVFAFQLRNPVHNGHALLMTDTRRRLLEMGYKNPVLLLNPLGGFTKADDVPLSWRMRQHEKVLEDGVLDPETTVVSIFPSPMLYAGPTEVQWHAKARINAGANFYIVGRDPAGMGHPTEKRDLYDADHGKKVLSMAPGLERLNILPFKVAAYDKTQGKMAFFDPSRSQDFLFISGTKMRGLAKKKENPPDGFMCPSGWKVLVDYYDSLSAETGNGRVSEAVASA
UniProt Q9LZ66: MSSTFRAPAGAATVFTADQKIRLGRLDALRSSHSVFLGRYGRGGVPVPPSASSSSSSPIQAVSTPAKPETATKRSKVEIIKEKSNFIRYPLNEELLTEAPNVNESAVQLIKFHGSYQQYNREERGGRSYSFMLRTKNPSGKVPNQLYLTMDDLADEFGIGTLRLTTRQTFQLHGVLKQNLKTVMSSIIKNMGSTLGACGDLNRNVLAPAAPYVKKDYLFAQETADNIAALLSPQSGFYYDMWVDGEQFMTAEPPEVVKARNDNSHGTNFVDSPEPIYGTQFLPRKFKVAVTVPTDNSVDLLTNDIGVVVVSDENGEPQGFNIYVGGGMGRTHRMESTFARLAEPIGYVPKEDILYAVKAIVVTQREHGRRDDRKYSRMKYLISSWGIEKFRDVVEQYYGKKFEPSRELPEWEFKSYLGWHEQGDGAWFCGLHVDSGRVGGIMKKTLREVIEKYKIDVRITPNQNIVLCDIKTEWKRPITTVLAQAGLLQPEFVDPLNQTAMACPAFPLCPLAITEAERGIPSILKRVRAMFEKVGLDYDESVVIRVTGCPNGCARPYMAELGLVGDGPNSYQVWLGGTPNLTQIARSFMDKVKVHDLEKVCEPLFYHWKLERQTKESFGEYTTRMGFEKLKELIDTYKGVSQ
UniProt O23324: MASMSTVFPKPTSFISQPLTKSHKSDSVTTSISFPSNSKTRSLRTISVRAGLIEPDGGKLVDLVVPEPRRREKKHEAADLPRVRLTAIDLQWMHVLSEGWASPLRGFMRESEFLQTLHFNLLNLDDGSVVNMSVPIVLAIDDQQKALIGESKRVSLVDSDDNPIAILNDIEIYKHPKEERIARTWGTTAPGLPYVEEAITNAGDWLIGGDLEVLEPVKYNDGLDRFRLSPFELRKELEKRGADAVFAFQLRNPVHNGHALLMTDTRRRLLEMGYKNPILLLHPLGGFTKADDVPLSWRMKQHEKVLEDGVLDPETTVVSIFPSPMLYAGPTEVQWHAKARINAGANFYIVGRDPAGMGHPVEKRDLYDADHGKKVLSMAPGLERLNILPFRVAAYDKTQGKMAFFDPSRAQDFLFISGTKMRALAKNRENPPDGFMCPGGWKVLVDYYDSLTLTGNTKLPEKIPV

According to PMC11658185, “Analysis of the quadruple lsu mutant reveals molecular determinants of the role of LSU proteins in sulfur assimilation in Arabidopsis” (The Plant Journal, 2024):

B1: LSU1 (RESPONSE TO LOW SULFUR 1) (protein, UniProt Q9SCK1 1-94)
chain: MANRGGCVTVAAEEMDELRRRNIELSREVAEMKTEMIKLWQRTVVAEEAEEQLCSQLAELEVESLEQARDYHDRMLFLMDQISRLSSSSVVSSS
B2: LSU2 (RESPONSE TO LOW SULFUR 2) (protein, UniProt Q9FIR9 1-94)
chain: MGKGGNYVTVAASEVDELRRKNGEMEKAVEEMKKEMLQLWRRTQVAEEAEERLCSQLAELEAESLDQARDYHSRIIFLMNELSRLSSDSASASP
B3: LSU3 (RESPONSE TO LOW SULFUR 3) (protein, UniProt Q9SCK2 1-97)
chain: MGKGGGYVTVAAEEVEELRRRNGELEREMEEMKKEMVQLWRRTVVAEEAEERLCSQLAELEVESLDQARDYHSRIVFLMDQISRLSSSSLEVVVTNS
B4: LSU4 (RESPONSE TO LOW SULFUR 4) (protein, UniProt Q8L8S2 1-92)
chain: MGKGGNYVMVAASEVEELRQKNGEMEKAVEEMRKEMLQLWRRTQVAEEAEEHLCSQLAELEAESLDQARDYHTRIIFLTNQLSRFSSDSASP

Key:
Assay in all cases: two-hybrid; yeast two-hybrid, ORFs in pDEST-GAD or pDEST-GBK (GAL4 AD and BD fusions); the panel of enzymes and LSU proteins tested in both orientations; growth on selection media, plates 3 days at 30°C
[1] = molecular target: ATP sulfurylase isoform ATPS2 (A. thaliana) (UniProt Q43870)
[2] = molecular target: ATP sulfurylase isoform ATPS4 (A. thaliana) (UniProt Q9S7D8)
[3] = molecular target: SiR protein with the deletion of the region binding the [4Fe-4S] cluster (A. thaliana) (UniProt Q9LZ66)
[4] = molecular target: ATP sulfurylase isoform ATPS3 (A. thaliana) (UniProt O23324)

Row | Binder | binding [1] | binding [2] | binding [3] | binding [4]
1 | B1 | no binding | no binding | no binding | binds
2 | B2 | no binding | no binding |  | binds
3 | B3 | no binding | no binding |  | binds
4 | B4 | no binding | no binding |  | binds

These are yes or no findings as the source states them, for the method shown. For some of these results: Binding can be weak; no strength is given.
